Assay results taken from article PMC11992160.
Like-named read-outs stand apart in the source and are kept apart here. These are yes or no findings as the source states them, for the method shown. In cells and extracts the contact can be indirect. Here binding means that the protein was enriched with, or labelled near, the bait; the list need not be complete. For some assays here: A no says only that the protein was not detected with the bait. Tags and fused reporters may be left off the sequences shown. Each block holds one molecule with its values, some of them ahead of it.

Protein sequences, listed by entry. Tags and fused reporters are not part of them.
UniProt Q15797: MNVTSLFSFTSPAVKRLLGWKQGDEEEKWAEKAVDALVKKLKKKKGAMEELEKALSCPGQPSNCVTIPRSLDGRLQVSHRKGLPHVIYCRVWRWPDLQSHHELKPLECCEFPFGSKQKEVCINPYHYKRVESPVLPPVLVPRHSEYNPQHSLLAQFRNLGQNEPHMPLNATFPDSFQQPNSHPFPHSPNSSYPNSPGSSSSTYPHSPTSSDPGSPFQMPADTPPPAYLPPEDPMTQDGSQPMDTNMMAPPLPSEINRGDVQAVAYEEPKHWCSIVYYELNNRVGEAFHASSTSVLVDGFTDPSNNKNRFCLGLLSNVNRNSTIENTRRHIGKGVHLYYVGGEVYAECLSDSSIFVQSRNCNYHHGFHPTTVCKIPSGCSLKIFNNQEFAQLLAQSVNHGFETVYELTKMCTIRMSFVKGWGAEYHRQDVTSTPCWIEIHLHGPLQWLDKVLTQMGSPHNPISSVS
UniProt Q99717: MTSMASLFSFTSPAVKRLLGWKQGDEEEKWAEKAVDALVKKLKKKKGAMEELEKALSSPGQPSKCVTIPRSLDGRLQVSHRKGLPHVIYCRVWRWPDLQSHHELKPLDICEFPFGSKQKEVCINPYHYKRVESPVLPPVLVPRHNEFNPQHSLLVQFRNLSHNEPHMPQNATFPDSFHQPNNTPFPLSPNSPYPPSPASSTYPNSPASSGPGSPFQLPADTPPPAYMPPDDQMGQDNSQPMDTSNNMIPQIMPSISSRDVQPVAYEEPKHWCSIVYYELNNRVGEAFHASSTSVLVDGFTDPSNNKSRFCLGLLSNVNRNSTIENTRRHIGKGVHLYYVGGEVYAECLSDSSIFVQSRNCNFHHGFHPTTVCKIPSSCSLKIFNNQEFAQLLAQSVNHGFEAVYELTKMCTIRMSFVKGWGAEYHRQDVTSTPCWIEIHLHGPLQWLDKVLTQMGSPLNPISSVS
UniProt Q13485: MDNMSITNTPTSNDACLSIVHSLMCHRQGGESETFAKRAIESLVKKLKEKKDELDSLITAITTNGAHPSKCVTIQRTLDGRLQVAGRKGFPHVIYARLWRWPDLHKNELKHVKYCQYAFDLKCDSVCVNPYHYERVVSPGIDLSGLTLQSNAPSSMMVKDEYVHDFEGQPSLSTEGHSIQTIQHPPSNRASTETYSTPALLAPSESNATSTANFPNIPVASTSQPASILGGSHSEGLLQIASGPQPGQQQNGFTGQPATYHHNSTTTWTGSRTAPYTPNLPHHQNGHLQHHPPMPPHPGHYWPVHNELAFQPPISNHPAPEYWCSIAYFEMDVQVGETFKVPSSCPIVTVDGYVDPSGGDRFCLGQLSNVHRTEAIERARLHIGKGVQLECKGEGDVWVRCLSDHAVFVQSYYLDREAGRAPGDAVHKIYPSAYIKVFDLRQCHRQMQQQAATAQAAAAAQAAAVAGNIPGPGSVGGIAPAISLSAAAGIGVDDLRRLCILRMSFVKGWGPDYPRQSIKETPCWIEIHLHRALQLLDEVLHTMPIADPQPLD
UniProt P84022: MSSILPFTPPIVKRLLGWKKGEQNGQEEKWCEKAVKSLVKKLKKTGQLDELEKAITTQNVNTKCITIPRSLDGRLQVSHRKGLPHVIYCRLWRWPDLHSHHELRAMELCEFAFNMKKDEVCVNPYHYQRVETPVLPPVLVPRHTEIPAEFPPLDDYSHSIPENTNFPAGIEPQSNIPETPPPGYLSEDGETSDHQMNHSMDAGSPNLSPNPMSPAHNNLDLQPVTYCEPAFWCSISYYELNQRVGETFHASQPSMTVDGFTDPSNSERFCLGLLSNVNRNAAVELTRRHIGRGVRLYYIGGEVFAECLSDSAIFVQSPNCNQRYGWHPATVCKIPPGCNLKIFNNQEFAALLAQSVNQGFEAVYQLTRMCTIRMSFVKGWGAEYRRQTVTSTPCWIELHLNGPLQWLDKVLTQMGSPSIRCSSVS
UniProt O94901: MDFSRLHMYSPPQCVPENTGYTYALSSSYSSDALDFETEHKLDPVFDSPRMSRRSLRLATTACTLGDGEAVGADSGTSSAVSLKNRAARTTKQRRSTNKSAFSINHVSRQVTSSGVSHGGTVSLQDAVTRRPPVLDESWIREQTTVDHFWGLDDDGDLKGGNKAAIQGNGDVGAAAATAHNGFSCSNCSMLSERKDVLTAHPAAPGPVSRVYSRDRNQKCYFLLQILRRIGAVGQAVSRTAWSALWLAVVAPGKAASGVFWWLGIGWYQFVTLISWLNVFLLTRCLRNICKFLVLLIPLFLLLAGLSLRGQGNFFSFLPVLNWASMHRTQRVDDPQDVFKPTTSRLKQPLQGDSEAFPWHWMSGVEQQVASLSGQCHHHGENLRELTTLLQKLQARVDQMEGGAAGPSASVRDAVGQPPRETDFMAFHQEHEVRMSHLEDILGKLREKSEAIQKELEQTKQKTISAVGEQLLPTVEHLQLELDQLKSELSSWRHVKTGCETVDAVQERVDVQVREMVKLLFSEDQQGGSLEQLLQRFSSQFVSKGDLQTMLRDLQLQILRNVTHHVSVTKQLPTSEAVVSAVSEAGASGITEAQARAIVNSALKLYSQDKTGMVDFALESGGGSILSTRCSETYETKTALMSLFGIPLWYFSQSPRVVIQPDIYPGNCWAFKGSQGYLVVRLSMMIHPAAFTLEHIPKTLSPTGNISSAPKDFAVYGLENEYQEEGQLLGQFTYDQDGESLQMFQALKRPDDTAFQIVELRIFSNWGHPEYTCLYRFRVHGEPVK

Experiments:
Experiment in all cases: affinity purification with mass spectrometry; HeLa cells expressing CTDNEP1-3xFLAG or 3xV5-MAN1 against empty vector control cells, triplicates; lysis in 1% DMNG, 50 mM Tris-HCl pH 7.5, 150 mM NaCl; anti-FLAG or anti-V5 magnetic beads; label-free quantification
V5-MAN1 (V5-tagged MAN1) [1] = molecular target: T1, V5-MAN1 (V5-tagged MAN1) (UniProt Q9Y2U8)
T1 sequence: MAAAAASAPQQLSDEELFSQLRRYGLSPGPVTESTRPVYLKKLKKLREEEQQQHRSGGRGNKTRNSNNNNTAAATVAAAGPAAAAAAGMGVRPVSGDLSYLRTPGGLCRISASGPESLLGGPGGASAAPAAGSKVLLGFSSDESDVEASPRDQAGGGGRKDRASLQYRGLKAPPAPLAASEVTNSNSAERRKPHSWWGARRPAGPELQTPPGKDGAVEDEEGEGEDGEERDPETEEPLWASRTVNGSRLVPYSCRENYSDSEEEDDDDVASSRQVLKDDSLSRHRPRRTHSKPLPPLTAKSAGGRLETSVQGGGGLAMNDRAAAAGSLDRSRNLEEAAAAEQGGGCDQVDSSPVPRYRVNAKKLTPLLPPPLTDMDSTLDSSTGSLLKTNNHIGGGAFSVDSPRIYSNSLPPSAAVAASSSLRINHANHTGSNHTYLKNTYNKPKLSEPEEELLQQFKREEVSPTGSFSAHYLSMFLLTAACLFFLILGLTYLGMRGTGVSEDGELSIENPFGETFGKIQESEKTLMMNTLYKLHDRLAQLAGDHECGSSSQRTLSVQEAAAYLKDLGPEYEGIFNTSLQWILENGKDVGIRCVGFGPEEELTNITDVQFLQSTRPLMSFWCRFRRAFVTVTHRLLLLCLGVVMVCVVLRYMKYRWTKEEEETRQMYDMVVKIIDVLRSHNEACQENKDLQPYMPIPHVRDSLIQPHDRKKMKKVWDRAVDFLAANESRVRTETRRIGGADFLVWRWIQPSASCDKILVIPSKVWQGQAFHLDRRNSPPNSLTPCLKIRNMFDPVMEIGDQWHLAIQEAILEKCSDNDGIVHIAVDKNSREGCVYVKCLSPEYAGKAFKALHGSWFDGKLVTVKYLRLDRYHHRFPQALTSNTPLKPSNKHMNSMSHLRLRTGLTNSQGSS

[2] = molecular target: T2, CTDNEP1-FLAG (CTDNEP1 fused to a triple FLAG epitope tag) (UniProt O95476)
T2 sequence: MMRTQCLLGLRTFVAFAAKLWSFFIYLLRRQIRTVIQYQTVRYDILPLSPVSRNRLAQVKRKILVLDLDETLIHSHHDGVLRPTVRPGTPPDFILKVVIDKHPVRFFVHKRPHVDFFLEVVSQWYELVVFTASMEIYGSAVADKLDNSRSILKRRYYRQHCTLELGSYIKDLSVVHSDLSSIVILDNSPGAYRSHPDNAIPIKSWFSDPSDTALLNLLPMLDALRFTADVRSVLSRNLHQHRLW

[3] = molecular target: T2, CTDNEP1-FLAG (CTDNEP1 fused to a triple FLAG epitope tag); remark: listed apart in the source
V5-MAN1 (V5-tagged MAN1) [4] = molecular target: T1, V5-MAN1 (V5-tagged MAN1); remark: listed apart in the source

binding (V5-MAN1 (V5-tagged MAN1) [1]): binds
Molecule: SMAD1 (from UniProt Q15797 1-465)

binding (V5-MAN1 (V5-tagged MAN1) [1]): binds
Molecule: SMAD5 (from UniProt Q99717 1-465)

binding (V5-MAN1 (V5-tagged MAN1) [1]): no binding
Molecule: SMAD4 (from UniProt Q13485 1-552)

binding (V5-MAN1 (V5-tagged MAN1) [1]): binds
Molecule: SMAD3 (from UniProt P84022 1-425)

binding [2]: no binding
binding (V5-MAN1 (V5-tagged MAN1) [1]): no binding
Molecule: SUN1 (from UniProt O94901 1-785)

binding [3]: binds
binding (V5-MAN1 (V5-tagged MAN1) [4]): binds
B1: endogenous NEP1R1 (protein, UniProt Q8N9A8 1-125)
chain: MNSLEQAEDLKAFERRLTEYIHCLQPATGRWRMLLIVVSVCTATGAWNWLIDPETQKVSFFTSLWNHPFFTISCITLIGLFFAGIHKRVVAPSIIAARCRTVLAEYNMSCDDTGKLILKPRPHVQ
